Measurements from PubChem BioAssay AID330 (DTP/NCI, 2004).
The list does not hold the whole screen: it gathers tests that were run many times, whatever their T/C, doses with no T/C, and many T/C values between a quarter and a half above the control. Other doses and runs of a compound stand elsewhere. T/C: endpoint of the treated group in % of that of the vehicle group. Some entries give survivors of the animals treated and no T/C: the source holds a T/C of zero for them, seemingly a mark for toxic or unscored doses. Some survivor counts are full or nearly so, which does not show that the dose was tolerated: the source hardly ever lists a survival T/C far under the control, and the zero likely stands for such cases as well. Counts of survivors are from the toxicity check (mostly the fifth day) where no day follows; animals may have died later. Schedule codes are those of the source, read here as Q, the interval in days (D) or hours (H), X, the number of doses. Some entries were tested several times; the results are listed from low to high. Where survival is the endpoint, the PubChem record calls one and a half times the control and up active, and a quarter to a half above the control has no call in these data; cut-offs in other NCI protocols can differ. Some T/C values carry the count of animals alive at the toxicity check (mostly the fifth day); where none is given, no animal had died by that day. Marks such as (2×) count equal records among those shown.

System: P388 leukemia ip, CD2F1 mice, survival T/C
Assay: NCI In Vivo Anticancer Drug Screen. Data for tumor model P388 Leukemia (intraperitoneal) in CD2F1 (CDF1) mice
Conditions: T/C endpoint: median survival time, higher T/C = longer survival
[1] = dose: 6.25 mg/kg/injection, schedule: Q01DX009 (ip), vehicle: Klucel (hydroxypropylcellulose) (HPC)
[2] = dose: 100.0 mg/kg/injection, schedule: Q01DX005 (ip), vehicle: saline with Tween-80
[3] = dose: 200.0 mg/kg/injection, schedule: Q01DX005 (ip), vehicle: saline with Tween-80
[4] = dose: 100.0 mg/kg/injection, schedule: Q01DX009 (ip), vehicle: saline with Tween-80
[5] = dose: 200.0 mg/kg/injection, schedule: Q01DX009 (ip), vehicle: saline with Tween-80
[6] = dose: 400.0 mg/kg/injection, schedule: Q01DX001 (ip), vehicle: saline with Tween-80
[7] = dose: 120.0 mg/kg/injection, schedule: Q01DX005 (ip), vehicle: saline with Tween-80
[8] = dose: 240.0 mg/kg/injection, schedule: Q01DX005 (ip), vehicle: saline with Tween-80
[9] = dose: 25.0 mg/kg/injection, schedule: Q01DX009 (ip), vehicle: saline with Tween-80
[10] = dose: 50.0 mg/kg/injection, schedule: Q04DX002 (ip), vehicle: saline with Tween-80

Question: What does the source list for `COC1C(O)=C2C(=O)OC(C)(O)/C=C/C=C\C=C/C=C/C(c3ccccc3)NC(=O)/C=C/C=C/C=C/C=C/C2(C)C1O` (stereo not given)?
Answer: T/C (dose: 1.56 mg/kg/injection, schedule: Q01DX009 (ip), vehicle: Klucel (hydroxypropylcellulose) (HPC)): 128 % of control; T/C (dose: 3.12 mg/kg/injection, schedule: Q01DX009 (ip), vehicle: Klucel (hydroxypropylcellulose) (HPC)): 131 % of control; T/C [1]: 126 % of control; survivor count [1]: 6 of 6; survivor count (dose: 25.0 mg/kg/injection, schedule: Q01DX009 (ip), vehicle: Klucel (hydroxypropylcellulose) (HPC)): 5 of 6

Question: `CC(C)C(NC(=O)C(Cc1ccccc1)NC(=O)OCc1ccccc1)C(=O)OCc1ccccc1` (stereo not given) was tested. Which survivor count [2] did it give?
Answer: 5 of 5

Question: With `CC(C)(C)n1nnnc1N` as the molecule, how does the survivor count (dose: 100.0 mg/kg/injection, schedule: Q01DX009 (ip), vehicle: Klucel (hydroxypropylcellulose) (HPC)) read?
Answer: 6 of 6

Question: `CCC12CCCN3CCC4(c5ccc(OC)cc5N(C)C4C(O)(OC(C)=O)C1OC(C)O)C32` (stereo not given) was tested. Which survivor count [3] did it give?
Answer: 1 of 6

Question: With `O=C(NCCCC1NC(=O)/C(=C(O)/C=C/C=C/c2ccccc2)C1=O)OCc1ccccc1` (stereo not given) as the molecule, how does the survivor count [2] read?
Answer: 6 of 6

Question: For `COc1cc(Br)cc(/C=C/[N+](=O)[O-])c1OC`, which survivor count [4] is on record?
Answer: 1 of 6

Question: And the survivor count [5]?
Answer: 1 of 6

Question: With `C=CCNC(=S)NNC(=O)CNC(c1ccc(OC)cc1)C(CC)c1ccc(OC)cc1` (stereo not given) as the molecule, how does the survivor count [6] read?
Answer: 2 of 6

Question: Which survivor count (dose: 30.0 mg/kg/injection, schedule: Q01DX005 (ip), vehicle: Klucel (hydroxypropylcellulose) (HPC)) does the source give for `CC(=O)c1c(C)n(-c2ccccc2)c2c1[nH]c1ccccc12` here?
Answer: 6 of 6

Question: What about the survivor count (dose: 60.0 mg/kg/injection, schedule: Q01DX005 (ip), vehicle: Klucel (hydroxypropylcellulose) (HPC)) of the same molecule?
Answer: 6 of 6

Question: And the survivor count (dose: 120.0 mg/kg/injection, schedule: Q01DX005 (ip), vehicle: Klucel (hydroxypropylcellulose) (HPC))?
Answer: 6 of 6

Question: For `COC1=CC(=O)C(OC)=C(C2C(=O)N(C)c3ccccc32)C1=O` (stereo not given), which T/C (dose: 30.0 mg/kg/injection, schedule: Q01DX005 (ip), vehicle: saline) is on record?
Answer: 133 % of control

Question: And the survivor count [7]?
Answer: 6 of 6

Question: What about the survivor count [8] of the same molecule?
Answer: 1 of 6

Question: `CCC(=O)[O][Sn]([CH3])([CH3])[O][Sn]([CH3])([CH3])[O]C(=O)CC` was tested. Which T/C (dose: 25.0 mg/kg/injection, schedule: Q01DX005 (ip), vehicle: saline) did it give?
Answer: 131 % of control

Question: What about the survivor count (dose: 50.0 mg/kg/injection, schedule: Q01DX005 (ip), vehicle: saline) of the same molecule?
Answer: 3 of 6 and 4 of 6

Question: And the survivor count (dose: 100.0 mg/kg/injection, schedule: Q01DX005 (ip), vehicle: saline)?
Answer: 1 of 6

Question: What about the survivor count (dose: 200.0 mg/kg/injection, schedule: Q01DX005 (ip), vehicle: saline) of the same molecule?
Answer: 0 of 6

Question: For `COc1ccc2n[se]nc2c1`, which survivor count [8] is on record?
Answer: 0 of 6

Question: For `CN1CCC(O)(c2ncc(Br)c3ccccc23)CC1`, which survivor count (dose: 240.0 mg/kg/injection, schedule: Q01DX005 (ip), vehicle: saline + alcohol) is on record?
Answer: 0 of 6

Question: `Cc1ccc2ncccc2c1` was tested. Which survivor count (dose: 400.0 mg/kg/injection, schedule: Q04DX003 (ip), vehicle: saline with Tween-80) did it give?
Answer: 2 of 6

Question: How did the survivor count [6] turn out when `Cc1ccc2c(c1)nc(-c1ccccn1)n2CCc1ccncc1` was run?
Answer: 1 of 6

Question: For `CSc1ccc2c(NCCCCCCCCNc3c4ccccc4nc4cc(SC)ccc34)c3ccccc3nc2c1`, which T/C (dose: 5.0 mg/kg/injection, schedule: Q01DX009 (ip), vehicle: other) is on record?
Answer: 127 % of control

Question: What about the survivor count (dose: 20.0 mg/kg/injection, schedule: Q01DX009 (ip), vehicle: other) of the same molecule?
Answer: 0 of 6

Question: What does the source list for `CC1CC[N-]C(C)C1.CN(C)C=O.[Cl][Pt][Cl]` (stereo not given)?
Answer: T/C (dose: 6.25 mg/kg/injection, schedule: Q01DX009 (ip), vehicle: saline with Tween-80): 140 % of control; T/C (dose: 12.5 mg/kg/injection, schedule: Q01DX009 (ip), vehicle: saline with Tween-80): 130 and 136 % of control; survivor count [9]: 5 of 6 and 6 of 6; survivor count (dose: 50.0 mg/kg/injection, schedule: Q01DX009 (ip), vehicle: saline with Tween-80): 0 of 6 and 3 of 6; survivor count [4]: 0 of 6; survivor count [5]: 0 of 6

Question: With `COC(=O)NC1(NC(=O)OC)NC(=O)c2ccccc2N1` as the molecule, how does the survivor count (dose: 100.0 mg/kg/injection, schedule: Q01DX005 (ip), vehicle: DMSO) read?
Answer: 6 of 6

Question: What about the survivor count (dose: 200.0 mg/kg/injection, schedule: Q01DX005 (ip), vehicle: DMSO) of the same molecule?
Answer: 6 of 6

Question: With `Cc1cc(NC(=O)c2ccc(N)cc2)ccc1N=Nc1ccc2c(O)c(N=Nc3ccc(S(=O)(=O)O)cc3C)c(S(=O)(=O)O)cc2c1` as the molecule, how does the survivor count [3] read?
Answer: 1 of 6

Question: For `C/C(=N/N=C(N)N)c1cn[nH]c1C`, which T/C (dose: 240.0 mg/kg/injection, schedule: Q01DX005 (ip), vehicle: Klucel (hydroxypropylcellulose) (HPC)) is on record?
Answer: 125 % of control

Question: Which survivor count (dose: 400.0 mg/kg/injection, schedule: Q01DX009 (ip), vehicle: suspension in saline) does the source give for `Nc1ncnc2c1nc(Br)n2C1OC2COP(=O)(O)OC2C1O` (stereo not given) here?
Answer: 0 of 6

Question: Which results are given for `CN=C(N)N/N=C(\c1ccccc1)c1ccc(Br)cc1`?
Answer: T/C (dose: 12.5 mg/kg/injection, schedule: Q04DX002 (ip), vehicle: saline with Tween-80): 95, 105, 106 % of control (2×); T/C (dose: 25.0 mg/kg/injection, schedule: Q04DX002 (ip), vehicle: saline with Tween-80): 108 (2×), 126, 167 % of control [5 of 6 alive]; T/C [10]: 129, 131, 178 % of control; survivor count [10]: 5 of 6; survivor count (dose: 100.0 mg/kg/injection, schedule: Q04DX002 (ip), vehicle: saline with Tween-80): 0 of 6 and 6 of 6

Question: `CC[C@H]1C[C@H](Cc2ccccc2)CC[C@H]1N1CCCC1` was tested. Which survivor count [3] did it give?
Answer: 0 of 6

Question: Which results are given for `O=C(NCc1ccc(S(=O)(=O)F)cc1)Oc1ccc([N+](=O)[O-])cc1`?
Answer: survivor count [7]: 3 of 6; survivor count [8]: 0 of 6

Question: For `Cc1cc(COCCN(C)C)on1`, which survivor count [8] is on record?
Answer: 0 of 6

Question: Which results are given for `Nc1ccc2cc(Cl)ccc2c1`?
Answer: survivor count [9]: 5 of 6; survivor count (dose: 37.5 mg/kg/injection, schedule: Q01DX009 (ip), vehicle: saline with Tween-80): 5 of 6

Question: How did the survivor count (dose: 50.0 mg/kg/injection, schedule: Q01DX009 (ip), vehicle: saline) turn out when `COC(=O)C(CNc1ccc(S(N)(=O)=O)cc1)=[N+]=[N-]` was run?
Answer: 5 of 6

Question: With `c1ccc2nc(-c3cnc4ccccc4n3)cnc2c1` as the molecule, how does the survivor count (dose: 400.0 mg/kg/injection, schedule: Q04DX002 (ip), vehicle: saline with Tween-80) read?
Answer: 6 of 6

Question: For `COc1ccc(C(C)c2cc3c(cc2OCC(=O)O)OCO3)cc1OC` (stereo not given), which survivor count (dose: 200.0 mg/kg/injection, schedule: Q01DX005 (ip), vehicle: distilled water + Tween-80) is on record?
Answer: 2 of 6

Question: Which results are given for `Cc1cc2nc(CC(=O)c3cccnc3)c(CC(=O)c3cccnc3)nc2cc1C`?
Answer: survivor count (dose: 50.0 mg/kg/injection, schedule: Q01DX005 (ip), vehicle: saline with Tween-80): 6 of 6; survivor count [3]: 3 of 6
